Experimental data reported in PMC5995921.

Target: T1, VE-cadherin (human (endogenous in HUVEC)) (UniProt P33151)
T1 sequence: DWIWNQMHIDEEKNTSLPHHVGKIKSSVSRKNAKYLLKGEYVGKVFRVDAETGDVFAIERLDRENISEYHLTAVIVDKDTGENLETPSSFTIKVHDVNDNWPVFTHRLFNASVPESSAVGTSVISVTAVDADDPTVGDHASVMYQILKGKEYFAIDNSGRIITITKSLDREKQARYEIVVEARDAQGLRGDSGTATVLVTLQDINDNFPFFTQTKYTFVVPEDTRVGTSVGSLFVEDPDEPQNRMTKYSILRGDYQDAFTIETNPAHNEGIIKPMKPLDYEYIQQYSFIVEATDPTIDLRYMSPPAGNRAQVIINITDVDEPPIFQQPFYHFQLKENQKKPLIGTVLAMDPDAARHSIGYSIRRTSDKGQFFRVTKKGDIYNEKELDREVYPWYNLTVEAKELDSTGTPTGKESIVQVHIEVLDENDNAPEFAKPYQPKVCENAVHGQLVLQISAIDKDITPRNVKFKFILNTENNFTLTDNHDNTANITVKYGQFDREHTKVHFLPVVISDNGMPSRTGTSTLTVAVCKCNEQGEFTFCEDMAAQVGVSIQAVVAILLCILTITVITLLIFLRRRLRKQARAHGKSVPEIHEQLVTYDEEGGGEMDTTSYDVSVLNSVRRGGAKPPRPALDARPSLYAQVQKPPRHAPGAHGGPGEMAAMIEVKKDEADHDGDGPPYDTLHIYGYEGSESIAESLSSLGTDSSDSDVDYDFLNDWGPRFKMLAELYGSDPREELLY
Test: co-IP; HUVECs untreated or treated with Caov-3-derived exosomes (25 μg/mL); lysates (1 mg) immunoprecipitated with anti-VE-cadherin; blotted with anti-E-cadherin and anti-VE-cadherin

In the case of “soluble E-cadherin (sE-cad) on Caov-3-derived exosomes (human (endogenous in Caov-3))”, the binding is reported as “binds”.

Results are given in words; binding and its absence hold for the method and conditions named. In cells and extracts the contact can be indirect. Binding can be weak; no strength is given.
